{"source": "PubChem BioAssay AID743454 (Peter MacCallum Cancer Centre, 2014)", "aim": "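Knock-downs lowering viability or raising caspase 3/7 activity in vorinostat-treated resistant cells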 (primary screen)", "cell system": "human HCT116-VR colon cancer cells, selected for vorinostat resistance", "knock-down reagent": "siRNA pool against human genes, 40 nM siRNA pool", "time to read-out": "vorinostat for 24 h, read-out about 72 h after transfection", "challenge": "vorinostat at 2.5 µM final", "read-out": "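Two measures, CellTiter-Fluor viability and luminescent caspase 3/7 activity, each as fold change against same-plate mock wells, mean of duplicates, then screen-wide robust z-score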", "scale": "viability robust z-score: higher = more viable cells than screen typical; caspase robust z-score: higher = more caspase 3/7 activity than screen typical", "active means": "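Hits are knock-downs in viability class RV1/RV2 or caspase class CA1/CA2, excluding ones that killed cells in the no-drug cell-count arm; hits then retested with single siRNAs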", "note": "Here is one part, drawn at random, of about 18,000 deposited reagents. Of all reagents, 450 (2.5%) were called active. 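Single biological run; no consistent viability z cut-off exists, so the class columns, not z-scores, define the calls.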 Entries without a mark were called inactive. Reagent sequences are not shown."}
{"Gene": "CDIN1", "viability hit class": "no change", "caspase hit class": "no change", "viability robust z-score": -1.5, "caspase robust z-score": 1.33}
{"Gene": "TNS1", "viability hit class": "no change", "caspase hit class": "no change", "viability robust z-score": -0.57, "caspase robust z-score": -0.64}
{"Gene": "HSPA4L", "viability hit class": "no change", "caspase hit class": "no change", "viability robust z-score": 0.94, "caspase robust z-score": -0.74}
{"Gene": "RGS18", "viability hit class": "no change (active)", "caspase hit class": "CA1 (caspase activation)", "viability robust z-score": 1.03, "caspase robust z-score": 7.22}
{"Gene": "RAB18", "viability hit class": "no change", "caspase hit class": "no change", "viability robust z-score": 0.84, "caspase robust z-score": -0.36}
{"Gene": "DLG3", "viability hit class": "no change", "caspase hit class": "no change", "viability robust z-score": 2, "caspase robust z-score": -0.43}
{"Gene": "PLA2G7", "viability hit class": "no change", "caspase hit class": "no change", "viability robust z-score": -0.52, "caspase robust z-score": -0.5}
{"Gene": "NEK9", "viability hit class": "no change", "caspase hit class": "no change", "viability robust z-score": -1.68, "caspase robust z-score": -0.29}
{"Gene": "SLC30A9", "viability hit class": "no change", "caspase hit class": "no change", "viability robust z-score": -0.16, "caspase robust z-score": 0.6}
{"Gene": "C4BPA", "viability hit class": "no change", "caspase hit class": "no change", "viability robust z-score": 0.77, "caspase robust z-score": 0.34}
{"Gene": "SAP30BP", "viability hit class": "no change", "caspase hit class": "no change", "viability robust z-score": -1.6, "caspase robust z-score": -0.57}
{"Gene": "TSPAN8", "viability hit class": "no change", "caspase hit class": "no change", "viability robust z-score": -0.51, "caspase robust z-score": 0.08}
{"Gene": "ODR4", "viability hit class": "no change", "caspase hit class": "no change", "viability robust z-score": -0.24, "caspase robust z-score": -1.25}
{"Gene": "MED29", "viability hit class": "no change", "caspase hit class": "no change", "viability robust z-score": 1.65, "caspase robust z-score": -0.12}
{"Gene": "SBF1", "viability hit class": "no change", "caspase hit class": "no change", "viability robust z-score": 0.72, "caspase robust z-score": 0.34}
{"Gene": "NUDT22", "viability hit class": "no change", "caspase hit class": "no change", "viability robust z-score": -1.38, "caspase robust z-score": -0.5}
{"Gene": "HORMAD2", "viability hit class": "no change", "caspase hit class": "no change", "viability robust z-score": -0.09, "caspase robust z-score": -1.04}
{"Gene": "BTN2A1", "viability hit class": "no change", "caspase hit class": "no change", "viability robust z-score": -0.79, "caspase robust z-score": 0.3}
{"Gene": "ZNF286A", "viability hit class": "no change", "caspase hit class": "no change", "viability robust z-score": -0.85, "caspase robust z-score": -1.08}
{"Gene": "STUM", "viability hit class": "no change", "caspase hit class": "no change", "viability robust z-score": -0.11, "caspase robust z-score": 0.66}
{"Gene": "PSME2", "viability hit class": "no change", "caspase hit class": "no change", "viability robust z-score": -1.75, "caspase robust z-score": -1.1}

Not a retest: an excerpt of the list.
{"Gene": "ODR4", "viability hit class": "no change", "caspase hit class": "no change", "viability robust z-score": -0.24, "caspase robust z-score": -1.25}
{"Gene": "MED29", "viability hit class": "no change", "caspase hit class": "no change", "viability robust z-score": 1.65, "caspase robust z-score": -0.12}
